Measurements published in PubChem BioAssay AID1487 (National Center for Advancing Translational Sciences (NCATS), 2009).
Values joined by “and” are separate entries in the source; they are usually repeats but may differ in a detail not shown here. Equal values may be shown once. Some of the results follow. The main result of the screen is listed elsewhere. These columns were measured beside it and carry no call. Most of these compounds were active or inconclusive in the main read-out, so they are no random draw. Words in brackets tell the shape of the fitted curve; partial curves, single points and poor fits give uncertain potencies.

Test: qHTS Assay for Modulators of Lamin A Splicing
Conditions: HeLa LMNA splicing GFP/RFP minigene ratio, 48 h
Outline: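 Read-out is the ratio of GFP to DsRed2 object intensity, acquired by 488 nm laser-scanning cytometry on HeLa lamin A-EGFP minigene reporter cells. Compound incubation 48 hrs at 37 °C in Opti-MEM with 2% FBS; DMSO 0.5% final.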

[1] = measured here: RFP viability control channel
[2] = measured here: GFP splicing reporter channel

Row | SMILES | AC50 [1] | AC50 [2]
1 | COc1ccc(C(=O)Nc2sc3c(c2C(=O)O)CC(C)(C)OC3)cc1 | 3.55 µM [rising, partial curve, poor fit] | 
2 | CCCCn1c(O)c(/C(CC)=N/N2CCCCC2c2cccnc2)c(=O)[nH]c1=S (stereo not given) | 11.2 µM [rising, partial curve, poor fit] | 
3 | O=C1c2cccc3cccc(c23)C(=O)N1/N=C/c1c(O)n(-c2ccccc2)c(=O)[nH]c1=O | 0.00447 µM [falling, full curve, poor fit] | 
4 | CN1[C@@H]2CC(OC(=O)[C@@H](CO)c3ccccc3)C[C@@H]1[C@H]1O[C@H]12 (stereo not given in full) | 0.126 µM [rising, full curve, poor fit] | 
5 | CCOC(=O)C(O)(c1ccc(NC(=S)NC(=O)c2ccc(Cl)cc2Cl)cc1)C(F)(F)F (stereo not given) | 3.55 µM [rising, single point] | 35.5 µM [falling, single point]
6 | O=[N+]([O-])c1ccc2nc(N3CCNCC3)ccc2c1 | 5.62 µM [falling, partial curve] | 14.1 µM [falling, partial curve]
7 | C=CCN1C(=O)NC(=O)/C(=C/c2ccoc2)C1=O | 3.16 µM [falling, partial curve, poor fit] | 10 µM [falling, partial curve]
8 | Cc1cc(S(=O)(=O)NCC(C)C)ccc1OCC(=O)N1CCN(Cc2ccccc2)CC1 | 11.2 µM [rising, partial curve] | 
9 | O=C1OC(=O)C2C3CCC(O3)C12 (stereo not given) | 31.6 µM [falling, single point] and 1.58 µM [falling, partial curve, poor fit] | 31.6 µM [falling, single point] and 35.5 µM [falling, single point]
10 | Cc1nn(Cc2ccccc2)c(Cl)c1C(=O)OC(C)C(=O)Nc1ccc(F)cc1Cl (stereo not given) | 20 µM [falling, partial curve, poor fit] | 
11 | CC(=O)[C@@]1(O)CC[C@H]2[C@@H]3C[C@H](C)C4=CC(=O)CC[C@]4(C)[C@H]3CC[C@@]21C | 1 µM [falling, full curve, poor fit] | 11.2 µM [rising, single point]
12 | COC(=O)C1=Nc2ccccc2/C1=C\c1c(O)n(-c2ccc(OC)cc2)c(=O)[nH]c1=O | 17.8 µM [falling, partial curve] | 22.4 µM [falling, single point]
13 | Cc1ccsc1C(=O)C1CCCN(Cc2cc3ccccc3o2)C1 (stereo not given) | 0.141 µM [falling, full curve, poor fit] | 25.1 µM [falling, partial curve]
14 | CC[n+]1c(SC)ccc2cc(OC)ccc21 | 35.5 µM [rising, single point] | 31.6 µM [rising, single point]
15 | O=C(O)CCn1cc(C=C2C(=O)NC(=O)NC2=O)c(-c2cc3ccccc3oc2=O)n1 |  | 0.178 µM [rising, full curve, poor fit]
16 | COCc1ccc(CN2CCCC(C(=O)c3sccc3C)C2)o1 (stereo not given) | 0.02 µM [falling, full curve, poor fit] | 
17 | C[C@]12C=CC(=O)C=C1CC[C@@H]1[C@@H]2CC[C@@]2(C)[C@H]1CC[C@]2(C)O | 0.316 µM [rising, full curve, poor fit] | 0.891 µM [falling, partial curve]
18 | c1ccc2c(c1)CN1CCCC1=N2 | 10 µM [rising, partial curve, poor fit] | 7.08 µM [rising, partial curve]
19 | CCN(CC)C(=O)Oc1ccc2ccccc2c1Cl | 12.6 µM [rising, single point] | 20 µM [rising, single point]
20 | CC(=O)N1CCCSC1=Nc1ccccc1 | 11.2 µM [rising, partial curve, poor fit] | 
21 | Cc1cc(SCC(=O)N/N=C/c2ccco2)nc2ccccc12 | 22.4 µM [falling, partial curve] | 12.6 µM [falling, partial curve, poor fit]
22 | NS(=O)(=O)c1ccc(N2CCNCC2)cc1 | 1.26 µM [rising, single point] | 1.26 µM [rising, single point]
23 | O=C(N/N=C/c1c(O)n(CCC2=CCCCC2)c(=O)[nH]c1=O)c1ccccc1 | 20 µM [rising, single point] | 
24 | C=CCN1C[C@@H](C)N([C@H](c2ccc(C(=O)N(CC)CC)cc2)c2cccc(OC)c2)C[C@@H]1C | 6.31 µM [falling, single point] | 5.62 µM [falling, partial curve, poor fit]
25 | Cc1c(C(=O)N2CCC3(CC2)OCCO3)oc2ccc(S(=O)(=O)N3CCCCC3)cc12 |  | 0.0891 µM [rising, full curve]
26 | CCOC(=O)C1=CC(OC(CC)CC)C(NC(C)=O)C(N)C1 (stereo not given) | 6.31 µM [falling, partial curve, poor fit] | 
27 | Nc1ccc2nonc2c1[N+](=O)[O-] |  | 0.00794 µM [rising, full curve, poor fit]

Look-ups from above.
Entry for CC(=O)[C@@]1(O)CC[C@H]2[C@@H]3C[C@H](C)C4=CC(=O)CC[C@]4(C)[C@H]3CC[C@@]21C under AC50 [1]: 1 µM [falling, full curve, poor fit]
Entry for CC[n+]1c(SC)ccc2cc(OC)ccc21 under AC50 [1]: 35.5 µM [rising, single point]
Entry for O=C1OC(=O)C2C3CCC(O3)C12 (stereo not given) under AC50 [2]: 31.6 µM [falling, single point] and 35.5 µM [falling, single point]
Entry for CN1[C@@H]2CC(OC(=O)[C@@H](CO)c3ccccc3)C[C@@H]1[C@H]1O[C@H]12 (stereo not given in full) under AC50 [1]: 0.126 µM [rising, full curve, poor fit]

The list continues.

Row | SMILES | AC50 [1] | AC50 [2]
28 | CCCCNCC(O)c1ccc(O)cc1 (stereo not given) | 7.94 µM [rising, partial curve, poor fit] | 2.51 µM [falling, single point]
29 | c1ccc2c(N3CCNCC3)cccc2c1 | 0.00562 µM [falling, full curve, poor fit] | 
30 | CCOC(=O)c1cn2nc(OP(=S)(OCC)OCC)cc2nc1C |  | 20 µM [rising, single point]
31 | CN1CCN(CC(=O)Nc2ccc([N+](=O)[O-])cc2C(=O)c2ccccc2)CC1 |  | 0.158 µM [falling, single point]
32 | C[C@H]1CCCC(=O)CCC/C=C/c2cc(O)cc(O)c2C(=O)O1 | 17.8 µM [rising, single point] | 15.8 µM [falling, single point]
33 | COc1ccccc1/C=N/N=C(/N)N[N+](=O)[O-] | 11.2 µM [rising, single point] | 
34 | Cc1cccc(OCC(=O)N2CCN(Cc3cc(=O)n4nc(-c5ccccc5Cl)sc4n3)CC2)c1 |  | 0.316 µM [rising, full curve, poor fit]
35 | CCOCCCn1c(N)c(C(=O)Nc2sc3c(c2C(=O)OC)CCCC3)c2nc3ccccc3nc21 | 35.5 µM [falling, single point] | 12.6 µM [falling, partial curve]
36 | CC(C)=CCCC1(C)C=Cc2c(O)c3c(c(CC=C(C)C)c2O1)OC12C(=CC4CC1C(C)(C)OC2(C/C=C(/C)C(=O)O)C4O)C3=O (stereo not given) | 6.31 µM [falling, full curve] | 7.08 µM [falling, partial curve]
37 | O=C1C(=O)c2ccccc2-c2ccccc21 | 3.16 µM [falling, full curve] | 2.82 µM [falling, full curve]
38 | COC(=O)C(c1ccccc1)C1CCCCN1 (stereo not given) |  | 0.000794 µM [falling, full curve, poor fit]
39 | CC(C)c1ccc(NC(=O)c2ccc(F)c(S(=O)(=O)N3CCc4ccccc4C3)c2)cc1 | 6.31 µM [falling, full curve, poor fit] | 6.31 µM [falling, full curve, poor fit]
40 | CCN(CC)CCCN=Cc1c(O)n(Cc2ccc(F)cc2)c(=O)[nH]c1=O | 0.0708 µM [falling, full curve, poor fit] | 
41 | COc1c(O)ccc2c1-c1c3c(cc4c1C(C2)N(C)CC4)OCO3 (stereo not given) | 12.6 µM [rising, single point] | 
42 | CCOC(=O)C1(CCOc2ccccc2)CCN(C2Cc3ccccc3C2)CC1 |  | 5.01 µM [rising, single point]
43 | CC(C)NC[C@@H](O)COc1cccc2[nH]ccc12 | 0.000794 µM [falling, full curve, poor fit] | 
44 | OC1/C(=C/c2ccccc2C(F)(F)F)N2CCC1CC2 (stereo not given) |  | 0.0562 µM [falling, partial curve, poor fit]
45 | O=c1c2ccccc2nc(-c2ccco2)n1-c1ccncc1 |  | 25.1 µM [rising, single point]
46 | CC(=O)NC(=O)NC(C)Cc1ccccc1 (stereo not given) | 1 µM [falling, full curve, poor fit] | 
47 | CNCC[C@H](Oc1ccc(C(F)(F)F)cc1)c1ccccc1 | 0.00447 µM [falling, full curve, poor fit] | 12.6 µM [falling, partial curve]
48 | Cn1c(CN2CCN(C(=O)COc3ccccc3)CC2)nc2cc([N+](=O)[O-])ccc21 | 25.1 µM [rising, single point] | 
49 | Cc1nn(Cc2ccccc2)c(C)c1C(=O)NCc1ccccc1 | 35.5 µM [falling, single point] | 
50 | Cc1ccc(CN2CC3CC(C2)c2cccc(=O)n2C3)cc1 (stereo not given) | 14.1 µM [rising, partial curve] | 
51 | Cc1ccc2c(c1)C1CN(C)CCC1N2C(=O)c1ccccc1NS(=O)(=O)c1cccc(C(F)(F)F)c1 (stereo not given) | 0.794 µM [rising, partial curve, poor fit] | 
52 | CN1C(=O)CN=C(c2ccccc2)c2cc([N+](=O)[O-])ccc21 | 11.2 µM [falling, partial curve, poor fit] | 11.2 µM [falling, single point]
53 | CCCCn1c(=O)c(C(=O)NCc2ccncc2)c(O)c2ccccc21 | 31.6 µM [rising, single point] | 
